In paper PMC11310522 one finds binding data, which are given here for one molecule.

In assay [1] the target is MCA–II–a–TAPa (Arabidopsis thaliana). The assay can be described thus: affinity purification with mass spectrometry; TAPa-tagged baits from four to five weeks-old Arabidopsis transgenic plants; extraction buffer 50 mM Tris-HCl pH 7.5, 150 mM NaCl, 10% glycerol, 0.1% Nonidet P-40; LC-MS/MS.
For assay [2], the target named is MCA–II–b–TAPa (Arabidopsis thaliana). The assay is described as above.

No constants are given. Whether binding was seen depends on the method and setting. In cells and extracts the contact can be indirect. Here binding means that the protein was enriched with, or labelled near, the bait; the list need not be complete.

B1: AT5G45620–SS regulatory sub 13a (protein, UniProt Q8RWF0 1-386)
chain: MAALQYLESLKNTHPELGEWYNSLADLYQKKLWHQLTLKLEQFIALAVFQAGDALIQFYHNFITDFETKINLLKLAHFAVVVSRQYSEKEAAVSYLESVIEKLRATKEPRITEPIIYIETQKALFKLEQGDQKECKKILDDGKSSLDSMTDIDPSVYANFYWVSSQYHKCRQEFSDFYKSALLYLAYTSVEDLSESFKLDLAFDLSLSALLGENIYNFGELLAHPILKSLLGTNVEWLYHILQAFNHGDLVQYQELCRVHNASLIAQPALVENEKKLLEKINILCLIEIIFSRPAEDRTIPLSIIAERTKLSIEDVEHLLMKSLSVHLIEGIIDQVNGTIYVSWAQPRVLGIPQIKALRDQLDSWVDKVHTTLLSVEAETPDLVAA
Regarding B1, the binding result in assay [1] and in assay [2] was “binds” throughout.
